Source: ChEMBL document CHEMBL1157379, “Transcriptional response of Candida parapsilosis following exposure to farnesol” (2007)
The source gives many values for each of these; only a part stands here.

Experiments:
Type in all cases: functional
Candida parapsilosis [1] = assay: Increase in BMS1 gene expression in Candida parapsilosis CLIB214 at 50 uM after 2 hrs by microarray based transcriptional profiling relative to control
Candida parapsilosis [2] = assay: Decrease in CGD gene ortholog accession number orf19.673 expression in Candida parapsilosis CLIB214 at 50 uM after 2 hrs by microarray based transcriptional profiling relative to control
Candida parapsilosis [3] = assay: Increase in BRE1 gene expression in Candida parapsilosis CLIB214 at 50 uM after 2 hrs by microarray based transcriptional profiling relative to control
Candida parapsilosis [4] = assay: Increase in CGD gene ortholog accession number orf19.2115 expression in Candida parapsilosis CLIB214 at 50 uM after 2 hrs by microarray based transcriptional profiling relative to control
Candida parapsilosis [5] = assay: Decrease in CCC1 gene expression in Candida parapsilosis CLIB214 at 50 uM after 2 hrs by microarray based transcriptional profiling relative to control
Candida parapsilosis [6] = assay: Increase in NAD3 gene expression in Candida parapsilosis CLIB214 at 50 uM after 2 hrs by microarray based transcriptional profiling relative to control
Candida parapsilosis [7] = assay: Increase in CGD gene ortholog accession number orf19.323 expression in Candida parapsilosis CLIB214 at 50 uM after 2 hrs by microarray based transcriptional profiling relative to control
Candida parapsilosis [8] = assay: Decrease in CGD gene ortholog accession number orf19.6713 expression in Candida parapsilosis CLIB214 at 50 uM after 2 hrs by microarray based transcriptional profiling relative to control
Candida parapsilosis [9] = assay: Decrease in MES1 gene expression in Candida parapsilosis CLIB214 at 50 uM after 2 hrs by microarray based transcriptional profiling relative to control
Candida parapsilosis [10] = assay: Increase in CGD gene ortholog accession number orf19.7048 expression in Candida parapsilosis CLIB214 at 50 uM after 2 hrs by microarray based transcriptional profiling relative to control
Candida parapsilosis [11] = assay: Decrease in DPB2 gene expression in Candida parapsilosis CLIB214 at 50 uM after 2 hrs by microarray based transcriptional profiling relative to control
Candida parapsilosis [12] = assay: Increase in CGD gene ortholog accession number orf19.1682 expression in Candida parapsilosis CLIB214 at 50 uM after 2 hrs by microarray based transcriptional profiling relative to control
Candida parapsilosis [13] = assay: Decrease in SNQ2 gene expression in Candida parapsilosis CLIB214 at 50 uM after 2 hrs by microarray based transcriptional profiling relative to control
Candida parapsilosis [14] = assay: Increase in CGD gene ortholog accession number orf19.631 expression in Candida parapsilosis CLIB214 at 50 uM after 2 hrs by microarray based transcriptional profiling relative to control
Candida parapsilosis [15] = assay: Decrease in CGD gene ortholog accession number orf19.5074 expression in Candida parapsilosis CLIB214 at 50 uM after 2 hrs by microarray based transcriptional profiling relative to control
Candida parapsilosis [16] = assay: Increase in CGD gene ortholog accession number orf19.7378 expression in Candida parapsilosis CLIB214 at 50 uM after 2 hrs by microarray based transcriptional profiling relative to control
Candida parapsilosis [17] = assay: Decrease in CGD gene ortholog accession number orf19.1070 expression in Candida parapsilosis CLIB214 at 50 uM after 2 hrs by microarray based transcriptional profiling relative to control
Candida parapsilosis [18] = assay: Decrease in AOX1 gene expression in Candida parapsilosis CLIB214 at 50 uM after 2 hrs by microarray based transcriptional profiling relative to control
Candida parapsilosis [19] = assay: Decrease in DUR4 gene expression in Candida parapsilosis CLIB214 at 50 uM after 2 hrs by microarray based transcriptional profiling relative to control
Candida parapsilosis [20] = assay: Increase in CGD gene ortholog accession number orf19.3647 expression in Candida parapsilosis CLIB214 at 50 uM after 2 hrs by microarray based transcriptional profiling relative to control
Candida parapsilosis [21] = assay: Decrease in UME6 gene expression in Candida parapsilosis CLIB214 at 50 uM after 2 hrs by microarray based transcriptional profiling relative to control
Candida parapsilosis [22] = assay: Increase in ISW2 gene expression in Candida parapsilosis CLIB214 at 50 uM after 2 hrs by microarray based transcriptional profiling relative to control
Candida parapsilosis [23] = assay: Decrease in GAL10 gene expression in Candida parapsilosis CLIB214 at 50 uM after 2 hrs by microarray based transcriptional profiling relative to control
Candida parapsilosis [24] = assay: Decrease in CGD gene ortholog accession number orf19.2940 expression in Candida parapsilosis CLIB214 at 50 uM after 2 hrs by microarray based transcriptional profiling relative to control
Candida parapsilosis [25] = assay: Decrease in CGD gene ortholog accession number orf19.7631 expression in Candida parapsilosis CLIB214 at 50 uM after 2 hrs by microarray based transcriptional profiling relative to control
Candida parapsilosis [26] = assay: Increase in CGD gene ortholog accession number orf19.6233 expression in Candida parapsilosis CLIB214 at 50 uM after 2 hrs by microarray based transcriptional profiling relative to control
Candida parapsilosis [27] = assay: Increase in SNZ1 gene expression in Candida parapsilosis CLIB214 at 50 uM after 2 hrs by microarray based transcriptional profiling relative to control
Candida parapsilosis [28] = assay: Increase in DBP8 gene expression in Candida parapsilosis CLIB214 at 50 uM after 2 hrs by microarray based transcriptional profiling relative to control
Candida parapsilosis [29] = assay: Decrease in CGD gene ortholog accession number orf19.2737 expression in Candida parapsilosis CLIB214 at 50 uM after 2 hrs by microarray based transcriptional profiling relative to control
Candida parapsilosis [30] = assay: Decrease in CGD gene ortholog accession number orf19.296 expression in Candida parapsilosis CLIB214 at 50 uM after 2 hrs by microarray based transcriptional profiling relative to control
Candida parapsilosis [31] = assay: Increase in SNQ2 gene expression in Candida parapsilosis CLIB214 at 50 uM after 2 hrs by microarray based transcriptional profiling relative to control
Candida parapsilosis [32] = assay: Decrease in CGD gene ortholog accession number orf19.1476 expression in Candida parapsilosis CLIB214 at 50 uM after 2 hrs by microarray based transcriptional profiling relative to control
Candida parapsilosis [33] = assay: Decrease in PTC4 gene expression in Candida parapsilosis CLIB214 at 50 uM after 2 hrs by microarray based transcriptional profiling relative to control
Candida parapsilosis [34] = assay: Decrease in CGD gene ortholog accession number orf19.2541 expression in Candida parapsilosis CLIB214 at 50 uM after 2 hrs by microarray based transcriptional profiling relative to control
Candida parapsilosis [35] = assay: Decrease in AMS1 gene expression in Candida parapsilosis CLIB214 at 50 uM after 2 hrs by microarray based transcriptional profiling relative to control
Candida parapsilosis [36] = assay: Decrease in CGD gene ortholog accession number orf19.7511 expression in Candida parapsilosis CLIB214 at 50 uM after 2 hrs by microarray based transcriptional profiling relative to control
Candida parapsilosis [37] = assay: Increase in CGD gene ortholog accession number orf19.4907 expression in Candida parapsilosis CLIB214 at 50 uM after 2 hrs by microarray based transcriptional profiling relative to control

Structure (SMILES): CC(C)=CCC/C(C)=C/CC/C(C)=C/CO [FARNESOL]
- fold change (FC) (Candida parapsilosis [1]): 2
- fold change (FC) (Candida parapsilosis [2]): 1.58
- fold change (FC) (Candida parapsilosis [3]): 1.84
- fold change (FC) (Candida parapsilosis [4]): 2.04
- fold change (FC) (Candida parapsilosis [5]): 1.65
- fold change (FC) (Candida parapsilosis [6]): 2.76
- fold change (FC) (Candida parapsilosis [7]): 1.5
- fold change (FC) (Candida parapsilosis [8]): 1.72
- fold change (FC) (Candida parapsilosis [9]): 1.53
- fold change (FC) (Candida parapsilosis [10]): 1.64
- fold change (FC) (Candida parapsilosis [11]): 1.77
- fold change (FC) (Candida parapsilosis [12]): 1.54
- fold change (FC) (Candida parapsilosis [13]): 2.34
- fold change (FC) (Candida parapsilosis [14]): 1.51
- fold change (FC) (Candida parapsilosis [15]): 1.79
- fold change (FC) (Candida parapsilosis [16]): 2.01
- fold change (FC) (Candida parapsilosis [17]): 2.48
- fold change (FC) (Candida parapsilosis [18]): 2
- fold change (FC) (Candida parapsilosis [19]): 2.01
- fold change (FC) (Candida parapsilosis [20]): 1.77
- fold change (FC) (Candida parapsilosis [21]): 1.99
- fold change (FC) (Candida parapsilosis [22]): 1.72
- fold change (FC) (Candida parapsilosis [23]): 1.78
- fold change (FC) (Candida parapsilosis [24]): 2.11
- fold change (FC) (Candida parapsilosis [25]): 1.74
- fold change (FC) (Candida parapsilosis [26]): 1.61
- fold change (FC) (Candida parapsilosis [27]): 2.01
- fold change (FC) (Candida parapsilosis [28]): 1.82
- fold change (FC) (Candida parapsilosis [29]): 1.55
- fold change (FC) (Candida parapsilosis [30]): 1.73
- fold change (FC) (Candida parapsilosis [31]): 2.43
- fold change (FC) (Candida parapsilosis [32]): 1.81
- fold change (FC) (Candida parapsilosis [33]): 2.16
- fold change (FC) (Candida parapsilosis [34]): 1.6
- fold change (FC) (Candida parapsilosis [35]): 1.66
- fold change (FC) (Candida parapsilosis [36]): 1.74
- fold change (FC) (Candida parapsilosis [37]): 1.76
